Primary screen of a compound library

Mtb growth Cornell: 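Whole-cell assay for inhibitors of Mycobacterium tuberculosis growth, labelled Cornell in the record; the read-out is not stated. The concentration is filed as 10 mM, unlikely as a test dose, so the dose is not known. The record gives no direction; compounds strong in two other growth screens of this library score well above the rest, so higher reads as stronger inhibition. Of about 53,000 compounds tested this way, about 900 (1.7%) reached 50% or more in at least one test.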
Mtb heat-shock: 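Assay on Mycobacterium tuberculosis, filed only as a heat shock assay from Cornell; the read-out is not stated. The concentration is filed as 10 mM, unlikely as a test dose, so the dose is not known. The record gives no direction; compounds that gave an IC50 in retests scored well above the rest, so higher reads as stronger inhibition. Of about 69,000 compounds tested this way, about 930 (1.4%) reached 50% or more in at least one test.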

The filed quantity is “Percent Effect” (%).
The controls that fix the scale are not given in the record; negative values are as filed.
Compounds were drawn at random from those tested, without regard to their results.

structure: Cc1ccc(C(=O)N2CCN(CCc3cccs3)CC2)c(=O)[nH]1
Mtb growth Cornell: 13.77%
Mtb heat-shock: -1.952%

structure: CCN(Cc1nonc1C)C(=O)c1ccc(Br)o1
Mtb heat-shock: -40.77%

structure: C[C@H](CCO)NS(=O)(=O)c1ccc(Br)cn1
Mtb heat-shock: -24.38%

structure: Cc1cc(C(=O)N2CCN(S(C)(=O)=O)[C@@H](C)C2)c(F)cc1F
Mtb growth Cornell: 9.875%
Mtb heat-shock: -10.08%

structure: FC(F)(F)c1cc(-c2cccs2)nc(N2CCN3CCCC3C2)n1 (centres unmarked)
Mtb growth Cornell: 24.42%
Mtb heat-shock: 14.59%

structure: Cn1cc(NC(=O)c2cc3c(s2)CCCC3)cn1
Mtb growth Cornell: 32.44%
Mtb heat-shock: 16.51%

structure: CN1CCCCC12CCN(c1nncs1)CC2.O=C(O)C(F)(F)F
Mtb growth Cornell: 5.536%
Mtb heat-shock: 6.317%

structure: CC(O)CN1CCN(Cc2csc(-c3cnn(C)c3)n2)CC1 (centres unmarked)
Mtb heat-shock: -3.565%

structure: CCn1cnnc1CNC(=O)NC(C)c1ccc(Cl)s1 (centres unmarked)
Mtb heat-shock: -4.058%

structure: CN(C)CCOCC1CN(Cc2ccncc2)Cc2nnn(C)c21.O=C(O)C(F)(F)F.O=C(O)C(F)(F)F.O=C(O)C(F)(F)F (centres unmarked)
Mtb heat-shock: -16.03%

structure: O=C(NC[C@H]1OC[C@@H](NCc2ccccc2)[C@@H]1O)Nc1ccccc1
Mtb growth Cornell: -3.319%
Mtb heat-shock: -0.8624%

structure: Cc1cc(N2CCC3(CCCN(CCO)C3=O)C2)nc(C)c1C#N (centres unmarked)
Mtb growth Cornell: 8.29%
Mtb heat-shock: -25.28%

structure: CC1CCCCN1c1nc2c(c(=O)[nH]1)CCN(Cc1ccc(O)cc1)C2 (centres unmarked)
Mtb heat-shock: -17.48%

structure: COc1ccnc(N2CCN(C(=O)c3cccc(C#N)c3)CC2)n1
Mtb growth Cornell: -36.06%
Mtb heat-shock: -9.91%

structure: Cn1nc(Cn2ccnc2)c2c1CN(Cc1ccoc1)C2.O=C(O)C(F)(F)F.O=C(O)C(F)(F)F
Mtb growth Cornell: -35.39%
Mtb heat-shock: -5.971%

structure: CCNc1ncc(C(=O)NCc2cccc(OC(F)(F)F)c2)cn1
Mtb growth Cornell: 27.01%
Mtb heat-shock: 13.01%

structure: CN(C)S(=O)(=O)NC1CCCc2c1cnn2-c1ccc(C(C)(C)C)cc1 (centres unmarked)
Mtb growth Cornell: -2.432%
Mtb heat-shock: 13.97%

structure: CC(C)Oc1ncccc1CNC(=O)c1ccc(=O)[nH]n1
Mtb heat-shock: 1.4%

structure: COc1ccccc1CCN1CCCC(CN(C)Cc2c[nH]c(C)n2)C1 (centres unmarked)
Mtb growth Cornell: 1.046%
Mtb heat-shock: -16.68%

structure: O=C(NCc1ccccc1)N1CCC2(CC(=O)N(c3ccsc3)C2)C1 (centres unmarked)
Mtb growth Cornell: 15.34%
Mtb heat-shock: -2.471%

structure: Cn1cccc1C(=O)NCc1cnc2n1CCN(CC1CC1)C2.O=C(O)C(F)(F)F
Mtb growth Cornell: 1.428%
Mtb heat-shock: -23.49%

structure: Cc1cc(NC(=O)C2CCN(c3ncccc3C#N)CC2)no1
Mtb growth Cornell: -28.06%
Mtb heat-shock: -23.73%

structure: COCCN1CCN(CC(=O)NC2(C#N)CCCC2)CC1
Mtb growth Cornell: 23.02%
Mtb heat-shock: 1.554%

structure: N#Cc1ccccc1CNC(C(=O)N1CCOCC1)c1ccccc1 (centres unmarked)
Mtb growth Cornell: -12.32%
Mtb heat-shock: -2.073%

structure: COc1c(CNCc2ccc(CS(C)(=O)=O)cc2)c(C)nn1C
Mtb heat-shock: -53.34%

structure: CNC(=O)c1sc(C(NC(=O)c2ccccc2)C2CC2)nc1C (centres unmarked)
Mtb heat-shock: -27.9%

structure: Fc1ccc(Oc2nccnc2C2CCN(C3CCOCC3)CC2)cc1
Mtb growth Cornell: 1.474%
Mtb heat-shock: 0.6424%

structure: Cc1n[nH]c(=O)c2c(NC(=O)CN3CCOC(C)C3)oc(C)c12 (centres unmarked)
Mtb growth Cornell: -2.521%
Mtb heat-shock: 10.59%

structure: Cc1ccc(NS(=O)(=O)c2cc3c(c(C(=O)O)c2)OCCO3)cc1F
Mtb growth Cornell: 3.495%
Mtb heat-shock: 1.611%

structure: Cc1cc(C(=O)N2C[C@@H](CN3CCOCC3)C[C@H](CO)C2)nc(C)n1
Mtb heat-shock: -2.865%

structure: O=C(NCCC1CN(Cc2c[nH]cn2)CCO1)c1ccccc1O (centres unmarked)
Mtb growth Cornell: -4.584%
Mtb heat-shock: -38.13%

structure: O=C(c1ncoc1C1CCCO1)N1CCCC2(CCCCC2)C1 (centres unmarked)
Mtb growth Cornell: 12.46%
Mtb heat-shock: 5.132%

The values are deposited in ChEMBL (CHEMBL3988442, “University of Dundee, Small-Polar-MMV Screening Library” (2021)).